Reference: PubChem BioAssay AID1259264 (Sanger Institute, 2017)

Screen: 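Kinase-wide knock-down to find genes that strengthen targeted drug effects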 (primary screen)
System: CL40 human colorectal cancer cells
Reagents: siRNA pool against human genes
Treatment: DMSO, or an anchor drug: BYL719 at 1 µM, cetuximab at 5 µg/ml, or trametinib at 10 nM
Read-out: 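Viability as a fraction of non-targeting pool control (replicates averaged), control-based robust z-score, plus averaged synergy for each drug: BYL719 1 µM, cetuximab 5 µg/ml, trametinib 10 nM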
Scale: robust z-score, siRNA alone and viability, siRNA alone: higher = more viable cells; synergy score with BYL719: higher = stronger combined killing with BYL719; synergy score with cetuximab: higher = stronger combined killing with cetuximab; synergy score with trametinib: higher = stronger combined killing with trametinib
Hit rule: 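Essential call: siRNA with no drug reaches a robust z under -3 (low cell count); drug synergy scores do not affect it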
Meaning of the calls: active = essential (lowers viability alone); inactive = not essential
Shown is one part, drawn at random, of 794 reagents tested. 15 of all reagents (1.9%) count as active. 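Calls rest on knock-down alone at z-score below -3; synergy scores with the three drugs do not decide them.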 Entries without a mark were called inactive. No viability above 1 is reported: the scale is capped. The record does not give: the amount of reagent, the time to read-out.

| gene symbol | robust z-score, siRNA alone | viability, siRNA alone (fraction of control) | synergy score with BYL719 | synergy score with cetuximab | synergy score with trametinib |
| --- | --- | --- | --- | --- | --- |
| RUNX1 (RUNX family transcription factor 1) | -1.11 | 0.882 | -0.0927 | -0.0172 | 0.137 |
| BRSK1 (BR serine/threonine kinase 1) | 0.239 | 0.978 | -0.168 | -0.0386 | 0.0465 |
| STK38 (serine/threonine kinase 38) | 0.0352 | 0.964 | -0.0284 | 0.00533 | 0.0581 |
| CSK (C-terminal Src kinase) | 0.539 | 1 | -0.136 | -0.0174 | 0.054 |
| PRKCH (protein kinase C eta) | 0.539 | 1 | -0.123 | 0.148 | -0.033 |
| NF1 (neurofibromin 1) | 0.539 | 1 | -0.127 | 0.0521 | -0.0773 |
| ERBB2 (erb-b2 receptor tyrosine kinase 2) | 0.539 | 1 | -0.152 | -0.0174 | -0.0784 |
| PDIK1L (PDLIM1 interacting kinase 1 like) | 0.539 | 1 | -0.136 | 0.0359 | 0.0924 |
| RIOK2 (RIO kinase 2) | -1.45 | 0.858 | 0.0566 | 0.0107 | 0.079 |
| BRWD1 (bromodomain and WD repeat domain containing 1) | 0.539 | 1 | -0.111 | 0.00992 | 0.0395 |
| PSKH2 (protein serine kinase H2) | 0.188 | 0.975 | -0.073 | -0.0421 | 0.149 |
| PAK4 (p21 (RAC1) activated kinase 4) | 0.539 | 1 | -0.0492 | 0 | 0.0535 |

Ordered by “viability, siRNA alone (fraction of control)” (lowest first): some entries from above
| gene symbol | robust z-score, siRNA alone | viability, siRNA alone (fraction of control) | synergy score with BYL719 | synergy score with cetuximab | synergy score with trametinib |
| --- | --- | --- | --- | --- | --- |
| STK38 (serine/threonine kinase 38) | 0.0352 | 0.964 | -0.0284 | 0.00533 | 0.0581 |
| BRSK1 (BR serine/threonine kinase 1) | 0.239 | 0.978 | -0.168 | -0.0386 | 0.0465 |

Further records follow:
| gene symbol | robust z-score, siRNA alone | viability, siRNA alone (fraction of control) | synergy score with BYL719 | synergy score with cetuximab | synergy score with trametinib |
| --- | --- | --- | --- | --- | --- |
| CDK7 (cyclin dependent kinase 7) | 0.539 | 1 | -0.0826 | -0.0174 | 0.0743 |
| SRP72 (signal recognition particle 72) | 0.539 | 1 | -0.0987 | 0.0251 | 0.054 |
| MGA (MAX dimerization protein MGA) | -1.42 | 0.86 | -0.0575 | -0.0603 | -0.0526 |
| CSNK1G1 (casein kinase 1 gamma 1) | 0.539 | 1 | -0.0399 | -0.0174 | 0.0727 |
| RIPK2 (receptor interacting serine/threonine kinase 2) | 0.209 | 0.976 | -0.00358 | -0.0248 | 0.128 |
| DGKH (diacylglycerol kinase eta) | 0.539 | 1 | 0.0201 | 0.0887 | 0.133 |
| TBCK (TBC1 domain containing kinase) | 0.539 | 1 | -0.156 | -0.0174 | 0.0737 |
| DGKQ (diacylglycerol kinase theta) | 0.384 | 0.989 | -0.06 | 0.0405 | 0.0435 |
